Laboratory results: patent US4622389A, “Novel substrate for determining the activity of blood coagulation factor Xa (Stuart-Prower factor)” (Nitto Poseki Co., Ltd., priority 1984, dated 1986)
At least one peptide structure holds a part that was inferred or is arguable (an end, a ring closure or a residue). Non-standard residues stand in square brackets, D forms with d. Residues, ends and D or L forms follow the SMILES beside them. *: point of attachment. pNA = O=[N+]([O-])c1ccc(N*)cc1; Piperidide = C1CCN(*)CC1; Cbz = O=C(OCc1ccccc1)*; Bz = O=C(c1ccccc1)*; For = O=C*

What was measured:
Conditions in all cases: So = 0.4 mM/l, 5 min reaction at 37° C.
plasmin (PL) = molecular target: T1, plasmin (PL) (Homo sapiens, UniProt P00747); test: Substrate specificity test: reaction of substrates with plasmin; assay type: biochemical
T1 construct: Plasmin Human; purchased The Green Cross Corporation, Japan
Description: (§1) The specificities of newly synthesized substrates were tested by reacting them with various enzymes as follows.
(§2) (1) Substrate solution: 2 mM/liter of H2 O
(§3) (2) Buffer solutions: The concentrations of each of tris(hydroxymethyl)aminomethane [hereinafter referred to as "Tris"], NaCl and CaCl2, as well as pH were specified as follows for the respective enzymes. […]
(§4) (4) Reaction Stopper (PNA): 10%-acetic acid
(§5) (5) Color forming agent (CHA): Pentacyanoamineferroate
(§6) (6) Method of determination:
(§7) 0.3 Milliter buffer solution and 0.1 ml of enzyme reagent were collected in a hard glass test tube of which surface being treated with silicone, or a plastic test tube and preheated in a thermostat at 37° C. for 5 minutes. Precisely 5 minutes after the reaction was started, 2.0 ml of reaction stopper solution or reactionterminating color forming reagent was added to terminate the enzyme reaction. The reaction mixture was allowed to stand at 37° C. for 10 minutes and then the adsorbance at 405 nm or 700 nm was measured.

thrombin (TH) = molecular target: T2, thrombin (TH) (Bos taurus, UniProt P00735); test: Substrate specificity test: reaction of substrates with thrombin; assay type: biochemical, Bovine
T2 construct: proteolyze factor II (prothrombin) at two points of peptide chain to turn it into factor IIa (thrombin); purchased Mochida Pharmaceutical Co., Ltd., Japan
Description: as §1, §2, §3, §4, §5, §6, §7

kallikrein (KL) = molecular target: T3, kallikrein (KL) (Sus scrofa, UniProt P00752); test: Substrate specificity test: reaction of substrates with kallikrein; assay type: biochemical, Swine
T3 construct: purchased Sigma Chemical Co., U.S.A
Description: as §1, §2, §3, §4, §5, §6, §7

urokinase (UK) = molecular target: T4, urokinase (UK) (Homo sapiens, UniProt P00749); test: Substrate specificity test: reaction of substrates with urokinase; assay type: biochemical
T4 construct: purchased Mochida Pharmaceutical Co., Ltd., Japan
Description: as §1, §2, §3, §4, §5, §6, §7

factor Xa (FXa) = molecular target: T5, factor Xa (FXa) (Homo sapiens, UniProt P00742); test: Substrate specificity test: reaction of substrates with FXa, absorbance of liberated chromogen; assay type: biochemical
T5 construct: purchased Bohringer Mannheim, GmbH, West Germany
Description: as §1, §2, §3, §4, §5, §6, §7

[1] = 700 nm (CHA substrates, pentacyanoamineferroate)

Row | SMILES | absorbance (O.D.), PL (plasmin (PL); [1]) [O.D.] | absorbance (O.D.), TH (thrombin (TH); [1]) [O.D.] | absorbance (O.D.), KL (kallikrein (KL); [1]) [O.D.] | absorbance (O.D.), UK (urokinase (UK); [1]) [O.D.] | absorbance (O.D.), FXa (factor Xa (FXa); [1]) [O.D.] | absorbance (O.D.), PL (plasmin (PL); 405 nm (PNA substrates)) [O.D.] | absorbance (O.D.), TH (thrombin (TH); 405 nm (PNA substrates)) [O.D.] | absorbance (O.D.), KL (kallikrein (KL); 405 nm (PNA substrates)) [O.D.] | absorbance (O.D.), UK (urokinase (UK); 405 nm (PNA substrates)) [O.D.] | absorbance (O.D.), FXa (factor Xa (FXa); 405 nm (PNA substrates)) [O.D.]
1 | N=C(N)NCCC[C@H](NC(=O)CNC(=O)[C@@H](CCCCNC=O)NC(=O)OCc1ccccc1)C(=O)Nc1ccc(O)c(C(=O)O)c1 [PS-2000, Z--D-Lys(For)--Gly--Arg--CHA] | 0.002 | 0.005 | 0.0 | 0.003 | 0.529 | – | – | – | – | –
2 | N=C(N)NCCC[C@H](NC(=O)CNC(=O)[C@@H](CCCCNC=O)NC(=O)OCc1ccccc1)C(=O)Nc1ccc([N+](=O)[O-])cc1 [PS-2000N, Z-D-Lys(For)-Gly-Arg-PNA, reference compound] (Cbz-[dK](For)-Gly-Arg-pNA) | – | – | – | – | – | 0.068 | 0.059 | 0.0 | 0.088 | 1.181
3 | CC(=O)NCCC[C@@H](NC(=O)OCc1ccccc1)C(=O)NCC(=O)N[C@@H](CCCNC(=N)N)C(=O)Nc1ccc(O)c(C(=O)O)c1 [PS-2003, ZD-Orn(Ac)GlyArgCHA] | 0.0 | 0.004 | 0.0 | 0.0 | 0.344 | – | – | – | – | –
4 | CC[C@H](C)[C@H](NC(=O)c1ccccc1)C(=O)N[C@@H](CCC(=O)N1CCCCC1)C(=O)NCC(=O)N[C@@H](CCCNC(=N)N)C(=O)Nc1ccc([N+](=O)[O-])cc1 [S-2337, reference compound] (Bz-IE(Piperidide)GR-pNA) | – | – | – | – | – | 0.008 | 0.025 | 0.0 | 0.024 | 0.576
